Results taken from the supplement of paper PMC10849652.
This is one part of the list.

Sequences of proteins named here, by UniProt entry; tags and fusion partners are left off. A change or cut given only in a name is not applied to a line headed by its entry.
UniProt P14550: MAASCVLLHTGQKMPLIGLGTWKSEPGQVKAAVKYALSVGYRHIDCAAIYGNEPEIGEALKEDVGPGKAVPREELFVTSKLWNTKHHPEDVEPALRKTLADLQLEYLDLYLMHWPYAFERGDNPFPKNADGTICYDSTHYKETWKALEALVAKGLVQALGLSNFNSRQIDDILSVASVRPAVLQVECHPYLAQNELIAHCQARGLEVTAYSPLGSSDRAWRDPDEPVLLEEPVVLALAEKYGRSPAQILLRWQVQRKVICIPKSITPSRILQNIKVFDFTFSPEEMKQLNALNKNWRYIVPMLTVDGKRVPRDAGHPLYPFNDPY
UniProt P30566: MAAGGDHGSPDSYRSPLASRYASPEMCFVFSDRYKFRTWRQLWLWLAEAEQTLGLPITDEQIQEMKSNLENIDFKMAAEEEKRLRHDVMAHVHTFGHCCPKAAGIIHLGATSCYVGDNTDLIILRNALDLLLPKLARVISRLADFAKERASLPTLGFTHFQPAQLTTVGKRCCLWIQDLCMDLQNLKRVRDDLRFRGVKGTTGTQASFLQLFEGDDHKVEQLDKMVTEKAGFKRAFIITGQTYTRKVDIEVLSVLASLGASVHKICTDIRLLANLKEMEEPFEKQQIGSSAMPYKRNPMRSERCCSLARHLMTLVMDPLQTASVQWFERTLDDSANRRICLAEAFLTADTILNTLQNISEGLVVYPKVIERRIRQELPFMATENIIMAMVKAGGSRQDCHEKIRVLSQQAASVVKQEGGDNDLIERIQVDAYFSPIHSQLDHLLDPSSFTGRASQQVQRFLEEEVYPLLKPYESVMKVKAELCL
UniProt Q9NP73: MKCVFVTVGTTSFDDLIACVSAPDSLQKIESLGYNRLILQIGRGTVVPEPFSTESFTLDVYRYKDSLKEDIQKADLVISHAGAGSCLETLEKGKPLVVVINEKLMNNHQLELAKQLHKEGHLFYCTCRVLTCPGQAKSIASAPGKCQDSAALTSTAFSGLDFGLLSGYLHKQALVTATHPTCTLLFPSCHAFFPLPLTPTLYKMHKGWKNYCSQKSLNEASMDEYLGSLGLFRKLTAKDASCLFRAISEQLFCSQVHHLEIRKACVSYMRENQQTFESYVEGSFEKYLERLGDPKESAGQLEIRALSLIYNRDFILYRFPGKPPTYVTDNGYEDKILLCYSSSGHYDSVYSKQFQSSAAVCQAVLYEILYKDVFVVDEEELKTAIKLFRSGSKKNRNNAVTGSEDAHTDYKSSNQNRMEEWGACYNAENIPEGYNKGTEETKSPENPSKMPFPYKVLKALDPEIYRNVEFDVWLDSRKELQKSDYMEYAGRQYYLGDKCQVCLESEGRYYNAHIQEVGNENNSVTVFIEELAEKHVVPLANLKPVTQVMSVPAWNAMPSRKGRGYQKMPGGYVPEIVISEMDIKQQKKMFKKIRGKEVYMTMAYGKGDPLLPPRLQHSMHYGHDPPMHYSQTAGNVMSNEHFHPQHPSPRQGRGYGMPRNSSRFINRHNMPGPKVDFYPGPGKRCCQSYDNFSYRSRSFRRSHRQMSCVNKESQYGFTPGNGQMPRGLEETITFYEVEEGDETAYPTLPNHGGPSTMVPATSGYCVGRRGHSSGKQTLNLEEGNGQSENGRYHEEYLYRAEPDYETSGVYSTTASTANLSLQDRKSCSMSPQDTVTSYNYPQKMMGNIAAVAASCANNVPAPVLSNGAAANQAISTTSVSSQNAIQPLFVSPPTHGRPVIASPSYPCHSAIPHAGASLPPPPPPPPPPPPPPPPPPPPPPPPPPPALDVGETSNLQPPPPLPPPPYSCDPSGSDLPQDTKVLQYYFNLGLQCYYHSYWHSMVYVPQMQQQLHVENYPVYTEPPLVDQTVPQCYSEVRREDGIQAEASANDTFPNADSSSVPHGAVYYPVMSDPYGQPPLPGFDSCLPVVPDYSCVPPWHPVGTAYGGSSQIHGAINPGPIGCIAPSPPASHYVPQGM
UniProt Q3KRA9: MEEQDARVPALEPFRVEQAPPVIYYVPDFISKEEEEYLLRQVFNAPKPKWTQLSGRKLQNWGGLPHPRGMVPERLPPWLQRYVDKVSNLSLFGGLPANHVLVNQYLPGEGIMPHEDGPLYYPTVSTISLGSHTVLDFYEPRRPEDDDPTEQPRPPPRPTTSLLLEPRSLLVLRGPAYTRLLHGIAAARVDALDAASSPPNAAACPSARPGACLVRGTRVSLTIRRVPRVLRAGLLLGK
UniProt Q96BJ3: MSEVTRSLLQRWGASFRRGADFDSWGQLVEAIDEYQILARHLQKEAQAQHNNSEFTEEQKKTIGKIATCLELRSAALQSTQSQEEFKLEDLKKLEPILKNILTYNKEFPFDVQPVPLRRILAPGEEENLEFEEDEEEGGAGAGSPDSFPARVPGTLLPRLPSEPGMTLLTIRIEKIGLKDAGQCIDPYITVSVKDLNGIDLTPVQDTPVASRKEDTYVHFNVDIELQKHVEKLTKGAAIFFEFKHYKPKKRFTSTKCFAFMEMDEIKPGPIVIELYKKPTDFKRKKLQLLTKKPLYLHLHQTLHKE
UniProt Q12904: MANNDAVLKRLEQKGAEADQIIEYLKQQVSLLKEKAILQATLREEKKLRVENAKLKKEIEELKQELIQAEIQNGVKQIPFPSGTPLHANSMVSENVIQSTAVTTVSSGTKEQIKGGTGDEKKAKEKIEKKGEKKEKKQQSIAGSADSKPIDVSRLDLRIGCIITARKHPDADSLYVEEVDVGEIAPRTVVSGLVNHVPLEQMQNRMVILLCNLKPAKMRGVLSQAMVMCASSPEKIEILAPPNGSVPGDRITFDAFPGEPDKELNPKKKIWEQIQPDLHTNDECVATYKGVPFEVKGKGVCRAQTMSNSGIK
UniProt Q9UM13, whole entry, looked up: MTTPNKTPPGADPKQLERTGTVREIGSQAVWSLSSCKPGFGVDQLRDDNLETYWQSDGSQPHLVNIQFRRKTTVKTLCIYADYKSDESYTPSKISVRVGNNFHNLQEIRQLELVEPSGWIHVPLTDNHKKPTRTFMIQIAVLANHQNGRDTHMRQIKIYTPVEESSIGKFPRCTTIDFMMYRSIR
UniProt Q01432: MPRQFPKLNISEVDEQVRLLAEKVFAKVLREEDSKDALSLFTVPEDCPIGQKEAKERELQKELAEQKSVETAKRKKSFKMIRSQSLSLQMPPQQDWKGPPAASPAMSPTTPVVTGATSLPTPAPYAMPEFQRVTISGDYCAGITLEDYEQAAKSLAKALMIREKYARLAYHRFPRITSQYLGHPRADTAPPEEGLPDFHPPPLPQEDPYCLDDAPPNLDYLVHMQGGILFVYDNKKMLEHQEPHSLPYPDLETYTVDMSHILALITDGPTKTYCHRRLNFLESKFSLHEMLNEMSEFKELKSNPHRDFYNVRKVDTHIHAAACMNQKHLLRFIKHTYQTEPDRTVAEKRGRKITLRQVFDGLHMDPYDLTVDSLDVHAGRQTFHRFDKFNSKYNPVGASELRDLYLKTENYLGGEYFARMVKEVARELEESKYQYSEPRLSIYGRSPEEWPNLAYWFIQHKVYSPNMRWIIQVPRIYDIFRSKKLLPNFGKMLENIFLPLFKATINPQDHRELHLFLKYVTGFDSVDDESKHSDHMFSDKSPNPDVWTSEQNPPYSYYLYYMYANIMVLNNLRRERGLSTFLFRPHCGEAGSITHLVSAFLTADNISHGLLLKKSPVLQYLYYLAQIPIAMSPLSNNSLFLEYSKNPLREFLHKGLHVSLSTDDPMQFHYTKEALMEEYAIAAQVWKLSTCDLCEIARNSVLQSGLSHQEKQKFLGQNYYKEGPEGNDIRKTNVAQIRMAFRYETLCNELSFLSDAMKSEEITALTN
UniProt Q9NRZ7: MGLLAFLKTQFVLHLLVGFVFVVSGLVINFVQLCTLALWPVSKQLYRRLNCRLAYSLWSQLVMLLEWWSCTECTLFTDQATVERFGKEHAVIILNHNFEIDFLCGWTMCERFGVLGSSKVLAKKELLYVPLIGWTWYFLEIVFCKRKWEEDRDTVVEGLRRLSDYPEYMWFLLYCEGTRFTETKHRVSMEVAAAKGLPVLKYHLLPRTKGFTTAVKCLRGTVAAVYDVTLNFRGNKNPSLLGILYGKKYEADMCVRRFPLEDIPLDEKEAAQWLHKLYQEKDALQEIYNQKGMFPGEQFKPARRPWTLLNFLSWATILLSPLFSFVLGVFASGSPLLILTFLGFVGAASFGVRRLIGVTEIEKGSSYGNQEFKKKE
UniProt Q9BT22: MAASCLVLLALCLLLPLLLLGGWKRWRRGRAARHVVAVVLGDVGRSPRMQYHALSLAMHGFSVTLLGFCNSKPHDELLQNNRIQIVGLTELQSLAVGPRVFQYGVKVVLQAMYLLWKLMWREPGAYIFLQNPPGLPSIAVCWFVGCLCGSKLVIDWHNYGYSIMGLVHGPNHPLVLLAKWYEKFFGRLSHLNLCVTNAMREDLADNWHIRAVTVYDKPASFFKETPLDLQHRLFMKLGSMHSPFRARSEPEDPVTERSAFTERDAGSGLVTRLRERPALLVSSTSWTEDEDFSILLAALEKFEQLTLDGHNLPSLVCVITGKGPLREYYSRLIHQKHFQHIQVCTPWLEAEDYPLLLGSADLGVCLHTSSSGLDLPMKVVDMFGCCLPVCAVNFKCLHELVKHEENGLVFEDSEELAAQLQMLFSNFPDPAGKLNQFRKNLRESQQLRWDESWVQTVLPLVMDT
UniProt Q96HN2, whole entry, looked up: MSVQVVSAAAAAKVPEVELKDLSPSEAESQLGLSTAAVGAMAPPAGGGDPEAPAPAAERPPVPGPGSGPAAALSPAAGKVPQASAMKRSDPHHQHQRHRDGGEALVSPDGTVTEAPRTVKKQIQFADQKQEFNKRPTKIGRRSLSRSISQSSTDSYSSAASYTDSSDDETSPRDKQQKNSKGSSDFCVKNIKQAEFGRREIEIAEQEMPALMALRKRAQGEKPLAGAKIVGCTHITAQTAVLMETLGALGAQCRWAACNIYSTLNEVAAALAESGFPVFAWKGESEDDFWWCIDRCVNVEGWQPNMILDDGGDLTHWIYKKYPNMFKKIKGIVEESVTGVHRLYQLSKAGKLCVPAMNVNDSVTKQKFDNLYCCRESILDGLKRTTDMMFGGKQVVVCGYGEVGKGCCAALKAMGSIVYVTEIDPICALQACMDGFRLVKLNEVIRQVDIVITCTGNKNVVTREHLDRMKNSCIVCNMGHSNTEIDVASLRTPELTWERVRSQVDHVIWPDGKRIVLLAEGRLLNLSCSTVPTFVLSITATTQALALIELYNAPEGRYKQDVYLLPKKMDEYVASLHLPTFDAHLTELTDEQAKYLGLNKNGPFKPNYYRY
UniProt Q3SY69: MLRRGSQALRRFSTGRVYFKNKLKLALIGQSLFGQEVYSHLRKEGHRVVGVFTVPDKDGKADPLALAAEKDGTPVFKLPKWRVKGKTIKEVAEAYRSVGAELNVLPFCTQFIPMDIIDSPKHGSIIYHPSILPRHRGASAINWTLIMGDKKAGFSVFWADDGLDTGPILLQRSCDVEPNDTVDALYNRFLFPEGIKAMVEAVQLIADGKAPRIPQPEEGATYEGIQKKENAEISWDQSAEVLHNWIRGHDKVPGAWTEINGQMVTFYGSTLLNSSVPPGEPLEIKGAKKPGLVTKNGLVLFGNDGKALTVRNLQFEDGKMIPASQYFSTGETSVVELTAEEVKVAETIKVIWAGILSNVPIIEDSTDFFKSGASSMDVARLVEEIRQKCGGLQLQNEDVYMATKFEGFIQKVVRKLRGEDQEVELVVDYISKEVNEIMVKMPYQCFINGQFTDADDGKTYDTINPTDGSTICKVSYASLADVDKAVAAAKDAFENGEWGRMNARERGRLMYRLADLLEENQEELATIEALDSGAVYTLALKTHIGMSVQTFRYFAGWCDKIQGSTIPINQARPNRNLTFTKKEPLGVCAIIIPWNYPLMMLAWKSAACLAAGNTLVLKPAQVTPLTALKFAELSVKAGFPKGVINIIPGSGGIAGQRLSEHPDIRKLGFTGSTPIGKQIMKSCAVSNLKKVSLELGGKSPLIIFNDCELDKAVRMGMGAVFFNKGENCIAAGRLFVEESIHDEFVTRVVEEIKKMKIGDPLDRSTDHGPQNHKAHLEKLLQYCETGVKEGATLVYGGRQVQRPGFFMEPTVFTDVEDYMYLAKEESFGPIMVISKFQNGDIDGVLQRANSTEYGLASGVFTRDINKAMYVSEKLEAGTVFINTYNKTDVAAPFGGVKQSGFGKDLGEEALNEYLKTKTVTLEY
UniProt Q16186: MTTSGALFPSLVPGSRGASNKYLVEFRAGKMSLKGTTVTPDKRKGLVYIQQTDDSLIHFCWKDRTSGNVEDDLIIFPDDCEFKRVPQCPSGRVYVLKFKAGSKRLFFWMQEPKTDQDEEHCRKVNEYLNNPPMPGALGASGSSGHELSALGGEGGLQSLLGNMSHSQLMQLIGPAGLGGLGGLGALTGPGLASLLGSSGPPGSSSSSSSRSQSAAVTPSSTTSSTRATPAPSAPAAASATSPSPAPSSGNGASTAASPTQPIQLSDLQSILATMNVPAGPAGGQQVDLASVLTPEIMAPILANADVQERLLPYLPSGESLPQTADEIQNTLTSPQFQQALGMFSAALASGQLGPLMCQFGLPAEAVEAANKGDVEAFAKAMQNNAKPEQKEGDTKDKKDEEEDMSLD

Tests used:
Assay in all cases: log2 fold change, soluble protein after heating vs DMSO (PISA); higher = thermal stabilisation; K562 cells, 10 uM, 30 min; active = over 0.2 and 3.5 SD of the protein, either way, in both replicates (recomputed)
[1] = compound: COC1=CC=C(C=C1)CN2C=CC3=C2C=C(C=C3)C(=O)NO
Outline: (§1)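 Aliquots of K562 cells (2×10^6 cells/mL) treated with 10 μM compound for 30 min were heated for 3 min over 48°C-58°C. After pooling and extraction in PBS with 0.5% NP-40 at 4°C, soluble protein from a 21,000xg, 90 min spin was quantified by TMTpro 16plex LC-MS/MS with channel sums equalised. Thermal stability is expressed against control samples, from duplicates, as a log2 fold change.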

filanesib = compound: CON(C)C(=O)N1N=C(c2cc(F)ccc2F)S[C@@]1(CCCN)c1ccccc1 [filanesib]
Outline: as §1

zotarolimus = compound: CO[C@H]1C[C@@H]2CC[C@@H](C)[C@@](O)(O2)C(=O)C(=O)N2CCCC[C@H]2C(=O)O[C@H]([C@H](C)C[C@@H]2CC[C@H](n3cnnn3)[C@H](OC)C2)CC(=O)[C@H](C)/C=C(\C)[C@@H](O)[C@@H](OC)C(=O)[C@H](C)C[C@H](C)/C=C/C=C/C=C/1C [zotarolimus]
Outline: as §1

idasanutlin = compound: COc1cc(C(=O)O)ccc1NC(=O)[C@@H]1N[C@@H](CC(C)(C)C)[C@](C#N)(c2ccc(Cl)cc2F)[C@H]1c1cccc(Cl)c1F [idasanutlin]
Outline: as §1

alisertib = compound: COc1cc(Nc2ncc3c(n2)-c2ccc(Cl)cc2C(c2c(F)cccc2OC)=NC3)ccc1C(=O)O [alisertib]
Outline: as §1

[2] = compound: COc1cc2nc(-c3cc(F)ccc3O)nc(N[C@@H]3CNC[C@H]3C(C)(C)O)c2cc1OC
Outline: as §1

gefitinib = compound: COc1cc2ncnc(Nc3ccc(F)c(Cl)c3)c2cc1OCCCN1CCOCC1 [gefitinib]
Outline: as §1

[3] = compound: COc1cccc2cc(-c3nc([C@H]4CC[C@H](C(=O)O)CC4)n4ncnc(N)c34)[nH]c12
Outline: as §1

lapatinib = compound: CS(=O)(=O)CCNCc1ccc(-c2ccc3ncnc(Nc4ccc(OCc5cccc(F)c5)c(Cl)c4)c3c2)o1 [lapatinib]
Outline: as §1

pictilisib = compound: CS(=O)(=O)N1CCN(Cc2cc3nc(-c4cccc5[nH]ncc45)nc(N4CCOCC4)c3s2)CC1 [pictilisib]
Outline: as §1

[4] = compound: CS(=O)(=O)c1ccc(-c2cnc(N)c(C(=O)Nc3ccccc3)n2)cc1
Outline: as §1

crizotinib = compound: C[C@@H](Oc1cc(-c2cnn(C3CCNCC3)c2)cnc1N)c1c(Cl)ccc(F)c1Cl [crizotinib]
Outline: as §1

[5] = compound: C[C@@H]1COCCN1C2=NC(=NC(=C2)C3(CC3)S(=O)(=O)C)C4=C5C=CNC5=CC=C4
Outline: as §1

[6] = compound: C[C@H](C1=CC=C(C=C1)C(=O)NC2=C3C=CNC3=NC=C2)N
Outline: as §1

duvelisib = compound: C[C@H](Nc1ncnc2nc[nH]c12)c1cc2cccc(Cl)c2c(=O)n1-c1ccccc1 [duvelisib]
Outline: as §1

gandotinib = compound: Cc1cc(Nc2cc(CN3CCOCC3)c3nc(C)c(Cc4ccc(Cl)cc4F)n3n2)n[nH]1 [gandotinib]
Outline: as §1

tozasertib = compound: Cc1cc(Nc2cc(N3CCN(C)CC3)nc(Sc3ccc(NC(=O)C4CC4)cc3)n2)n[nH]1 [tozasertib]
Outline: as §1

[7] = compound: Cc1cc(SCc2sc(-c3ccc(C(F)(F)F)cc3)nc2C)ccc1OCC(=O)O
Outline: as §1

doramapimod = compound: Cc1ccc(-n2nc(C(C)(C)C)cc2NC(=O)Nc2ccc(OCCN3CCOCC3)c3ccccc23)cc1 [doramapimod]
Outline: as §1

ispinesib = compound: Cc1ccc(C(=O)N(CCCN)[C@@H](c2nc3cc(Cl)ccc3c(=O)n2Cc2ccccc2)C(C)C)cc1 [ispinesib]
Outline: as §1

Measured: log2 fold change

AKR1A1 (UniProt P14550)
inactive: [1] 0.045 | filanesib -0.048 | zotarolimus -0.003 | idasanutlin -0.081 | alisertib -0.03 | [2] 0.054 | gefitinib 0.02 | [3] 0.043 | lapatinib 0.004 | pictilisib 0.017 | [4] 0.048 | crizotinib -0.006 | [5] 0.112 | [6] -0.094 | duvelisib 0.046 | gandotinib -0.065 | tozasertib -0.001 | [7] 0.006 | doramapimod 0.033 | ispinesib 0.028

ADSL (UniProt P30566)
inactive: [1] 0.02 | filanesib -0.033 | zotarolimus -0.031 | idasanutlin 0.009 | alisertib -0.04 | [2] 0 | gefitinib 0.006 | [3] 0.066 | lapatinib 0 | pictilisib 0.016 | [4] 0.005 | crizotinib 0.037 | [5] -0.014 | [6] -0.053 | duvelisib 0.012 | gandotinib 0.019 | tozasertib -0.011 | [7] -0.04 | doramapimod -0.044 | ispinesib 0.04

ALG13 (UniProt Q9NP73)
inactive: [1] 0.016 | filanesib -0.008 | zotarolimus 0.008 | idasanutlin -0.059 | alisertib -0.036 | [2] -0.011 | gefitinib 0.068 | [3] 0.05 | lapatinib -0.022 | pictilisib 0.072 | [4] -0.014 | crizotinib 0.035 | [5] 0.174 | [6] -0.023 | duvelisib 0.05 | gandotinib -0.081 | tozasertib 0.033 | [7] 0.053 | doramapimod 0.006 | ispinesib 0.042

ALKBH6 isoform 2 (UniProt Q3KRA9)
inactive: [1] -0.106 | filanesib 0.016 | zotarolimus 0.058 | idasanutlin -0.041 | alisertib -0.014 | [2] 0.034 | gefitinib 0.076 | [3] 0.018 | lapatinib 0.005 | pictilisib 0.099 | [4] 0.019 | crizotinib 0.027 | [5] -0.008 | [6] -0.041 | duvelisib -0.009 | gandotinib -0.008 | tozasertib 0.018 | [7] -0.059 | doramapimod 0.065 | ispinesib 0.043

AIDA (UniProt Q96BJ3)
inactive: [1] 0.005 | filanesib 0.062 | zotarolimus 0.058 | idasanutlin -0.01 | alisertib 0.011 | [2] -0.007 | gefitinib 0.053 | [3] 0.039 | lapatinib -0.036 | pictilisib 0.002 | [4] -0.051 | crizotinib 0.106 | [5] -0.004 | [6] -0.142 | duvelisib 0.042 | gandotinib -0.054 | tozasertib 0.021 | [7] 0.063 | doramapimod 0.011 | ispinesib -0.01

AIMP1 isoform 2 (UniProt Q12904)
inactive: [1] -0.02 | filanesib 0.289 | zotarolimus 0.115 | idasanutlin 0.203 | alisertib 0.015 | [2] -0.065 | gefitinib -0.012 | [3] -0.137 | lapatinib 0.099 | pictilisib -0.152 | [4] -0.004 | crizotinib -0.165 | [5] -0.419 | [6] 0.498 | duvelisib -0.1 | gandotinib 0.136 | tozasertib 0.027 | [7] 0.093 | doramapimod 0.329 | ispinesib -0.302

ANAPC1 (UniProt Q9H1A4)
inactive: [1] 0.008 | filanesib 0.046 | zotarolimus 0.025 | idasanutlin 0.024 | alisertib -0.072 | [2] 0.03 | gefitinib -0.012 | [3] -0.025 | lapatinib 0.059 | pictilisib -0.018 | [4] 0.02 | crizotinib -0.008 | [5] 0.002 | [6] 0.034 | duvelisib 0 | gandotinib -0.017 | tozasertib 0.02 | [7] 0.024 | doramapimod 0.003 | ispinesib 0.013

ANAPC10 (UniProt Q9UM13)
inactive: [1] 0.095 | filanesib -0.007 | zotarolimus -0.056 | idasanutlin 0.026 | alisertib -0.065 | [2] -0.03 | gefitinib 0.025 | [3] -0.039 | lapatinib -0.021 | pictilisib -0.037 | [4] -0.027 | crizotinib -0.064 | [5] -0.093 | [6] 0.118 | duvelisib 0.041 | gandotinib 0.054 | tozasertib 0.027 | [7] 0.004 | doramapimod -0.019 | ispinesib -0.036

AMPD3 isoform 4 (UniProt Q01432)
inactive: [1] -0.041 | filanesib -0.102 | zotarolimus 0.01 | idasanutlin 0.029 | alisertib -0.023 | [2] 0.019 | gefitinib -0.009 | [3] 0.071 | lapatinib 0.01 | pictilisib 0.131 | [4] 0.064 | crizotinib -0.065 | [5] 0.156 | [6] -0.051 | duvelisib 0.065 | gandotinib -0.057 | tozasertib -0.01 | [7] -0.002 | doramapimod 0.002 | ispinesib 0.002

2 successive records from above, for reference:
ALKBH6 isoform 2 (UniProt Q3KRA9)
inactive: [1] -0.106 | filanesib 0.016 | zotarolimus 0.058 | idasanutlin -0.041 | alisertib -0.014 | [2] 0.034 | gefitinib 0.076 | [3] 0.018 | lapatinib 0.005 | pictilisib 0.099 | [4] 0.019 | crizotinib 0.027 | [5] -0.008 | [6] -0.041 | duvelisib -0.009 | gandotinib -0.008 | tozasertib 0.018 | [7] -0.059 | doramapimod 0.065 | ispinesib 0.043

AIDA (UniProt Q96BJ3)
inactive: [1] 0.005 | filanesib 0.062 | zotarolimus 0.058 | idasanutlin -0.01 | alisertib 0.011 | [2] -0.007 | gefitinib 0.053 | [3] 0.039 | lapatinib -0.036 | pictilisib 0.002 | [4] -0.051 | crizotinib 0.106 | [5] -0.004 | [6] -0.142 | duvelisib 0.042 | gandotinib -0.054 | tozasertib 0.021 | [7] 0.063 | doramapimod 0.011 | ispinesib -0.01

(next part)

AGPAT3 isoform 3 (UniProt Q9NRZ7)
inactive: [1] -0.083 | filanesib -0.106 | zotarolimus 0.048 | idasanutlin -0.149 | alisertib 0.012 | [2] 0.083 | gefitinib 0.012 | [3] 0.005 | lapatinib 0.004 | pictilisib -0.013 | [4] -0.051 | crizotinib -0.04 | [5] 0.125 | [6] -0.074 | gandotinib -0.004 | [7] 0.023 | doramapimod 0.004 | ispinesib -0.074

ALG1 (UniProt Q9BT22)
inactive: [1] -0.004 | filanesib -0.227 | zotarolimus 0.016 | idasanutlin -0.046 | alisertib -0.178 | [2] 0.14 | gefitinib 0 | [3] -0.043 | lapatinib 0.033 | pictilisib 0.078 | [4] 0.032 | crizotinib 0.081 | [5] -0.005 | [6] -0.037 | duvelisib -0.022 | gandotinib -0.082 | tozasertib 0.012 | [7] 0.021 | doramapimod 0.02 | ispinesib 0.1

ALYREF (UniProt Q86V81)
inactive: [1] -0.157 | filanesib 0.311 | zotarolimus -0.036 | idasanutlin 0.145 | alisertib -0.035 | [2] 0.02 | gefitinib -0.062 | [3] -0.095 | lapatinib 0.045 | pictilisib 0.021 | [4] -0.029 | crizotinib 0.068 | [5] -0.376 | [6] 0.318 | duvelisib -0.095 | gandotinib 0.272 | tozasertib 0.037 | [7] -0.043 | doramapimod 0.174 | ispinesib -0.031

AHCYL2 (UniProt Q96HN2)
inactive: [1] 0.02 | filanesib -0.058 | zotarolimus -0.002 | idasanutlin -0.096 | alisertib -0.016 | [2] 0.041 | gefitinib 0.043 | [3] 0.028 | lapatinib -0.013 | pictilisib 0.075 | [4] 0.033 | crizotinib 0.053 | [5] 0.011 | [6] -0.033 | duvelisib 0.039 | gandotinib -0.026 | tozasertib -0.046 | [7] -0.034 | doramapimod -0.035 | ispinesib -0.002

ALDH1L2 (UniProt Q3SY69)
inactive: [1] -0.012 | filanesib -0.176 | zotarolimus -0.059 | idasanutlin -0.071 | alisertib 0.056 | [2] -0.13 | gefitinib 0.16 | [3] 0.093 | lapatinib 0.08 | pictilisib 0.06 | [4] 0.072 | crizotinib -0.047 | [5] 0.092 | [6] 0.04 | duvelisib 0.072 | gandotinib -0.06 | tozasertib 0.023 | [7] 0.059 | doramapimod 0.085 | ispinesib -0.041

ADRM1 (UniProt Q16186)
inactive: [1] 0.088 | filanesib 0.008 | zotarolimus 0.057 | idasanutlin -0.073 | alisertib -0.031 | [2] -0.029 | gefitinib -0.055 | [3] -0.045 | lapatinib 0.022 | pictilisib -0.013 | [4] 0.006 | crizotinib -0.109 | [5] -0.028 | [6] 0.138 | gandotinib -0.056 | [7] 0.069 | doramapimod 0.041 | ispinesib -0.05
